Measured values published in article PMC7595586.

Sequences of proteins named here, by UniProt entry; tags and fusion partners are left off.
UniProt O42900: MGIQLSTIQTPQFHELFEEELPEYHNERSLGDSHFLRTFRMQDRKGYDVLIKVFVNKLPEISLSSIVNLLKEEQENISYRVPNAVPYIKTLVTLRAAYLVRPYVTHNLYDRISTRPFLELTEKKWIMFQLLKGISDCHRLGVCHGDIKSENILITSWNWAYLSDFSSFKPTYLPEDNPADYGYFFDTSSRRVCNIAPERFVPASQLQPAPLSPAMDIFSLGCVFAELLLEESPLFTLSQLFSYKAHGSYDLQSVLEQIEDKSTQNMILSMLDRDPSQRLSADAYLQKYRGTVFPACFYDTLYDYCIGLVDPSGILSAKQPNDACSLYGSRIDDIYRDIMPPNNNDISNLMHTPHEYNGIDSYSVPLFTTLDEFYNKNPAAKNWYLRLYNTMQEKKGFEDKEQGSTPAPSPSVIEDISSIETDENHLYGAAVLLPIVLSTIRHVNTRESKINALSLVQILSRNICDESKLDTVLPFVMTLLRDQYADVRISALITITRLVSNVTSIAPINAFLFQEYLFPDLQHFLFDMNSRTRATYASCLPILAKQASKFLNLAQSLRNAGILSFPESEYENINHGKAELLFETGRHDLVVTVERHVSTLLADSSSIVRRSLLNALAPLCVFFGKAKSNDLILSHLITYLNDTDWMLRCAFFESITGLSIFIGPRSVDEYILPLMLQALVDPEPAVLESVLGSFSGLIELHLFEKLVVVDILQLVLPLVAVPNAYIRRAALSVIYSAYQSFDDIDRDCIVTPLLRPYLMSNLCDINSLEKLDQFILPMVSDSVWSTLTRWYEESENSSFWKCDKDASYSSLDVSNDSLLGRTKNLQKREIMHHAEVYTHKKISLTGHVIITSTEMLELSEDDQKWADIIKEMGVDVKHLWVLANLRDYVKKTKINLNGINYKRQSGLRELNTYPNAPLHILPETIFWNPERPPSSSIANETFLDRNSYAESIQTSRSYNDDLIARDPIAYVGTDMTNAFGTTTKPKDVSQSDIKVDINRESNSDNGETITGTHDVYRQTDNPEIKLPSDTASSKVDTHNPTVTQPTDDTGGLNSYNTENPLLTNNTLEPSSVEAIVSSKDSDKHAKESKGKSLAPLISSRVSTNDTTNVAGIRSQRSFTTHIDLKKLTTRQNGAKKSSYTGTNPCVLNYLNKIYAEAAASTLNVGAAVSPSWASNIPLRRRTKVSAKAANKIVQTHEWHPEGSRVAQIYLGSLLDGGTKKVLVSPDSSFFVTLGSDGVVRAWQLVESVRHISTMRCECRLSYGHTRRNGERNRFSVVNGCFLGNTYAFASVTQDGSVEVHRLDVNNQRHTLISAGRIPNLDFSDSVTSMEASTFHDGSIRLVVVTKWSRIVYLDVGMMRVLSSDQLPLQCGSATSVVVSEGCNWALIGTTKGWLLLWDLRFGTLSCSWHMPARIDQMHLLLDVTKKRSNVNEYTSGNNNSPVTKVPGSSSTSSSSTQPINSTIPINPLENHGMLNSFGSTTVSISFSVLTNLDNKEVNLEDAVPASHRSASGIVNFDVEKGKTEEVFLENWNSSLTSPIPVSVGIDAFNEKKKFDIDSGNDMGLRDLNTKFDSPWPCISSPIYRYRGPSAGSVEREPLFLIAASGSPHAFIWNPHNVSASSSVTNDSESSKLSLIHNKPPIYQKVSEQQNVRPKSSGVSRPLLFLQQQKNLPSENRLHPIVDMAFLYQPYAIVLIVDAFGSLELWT

T1: Atg38 (SPBC660.08), fission yeast (S. pombe) (UniProt O94427)
T1 sequence: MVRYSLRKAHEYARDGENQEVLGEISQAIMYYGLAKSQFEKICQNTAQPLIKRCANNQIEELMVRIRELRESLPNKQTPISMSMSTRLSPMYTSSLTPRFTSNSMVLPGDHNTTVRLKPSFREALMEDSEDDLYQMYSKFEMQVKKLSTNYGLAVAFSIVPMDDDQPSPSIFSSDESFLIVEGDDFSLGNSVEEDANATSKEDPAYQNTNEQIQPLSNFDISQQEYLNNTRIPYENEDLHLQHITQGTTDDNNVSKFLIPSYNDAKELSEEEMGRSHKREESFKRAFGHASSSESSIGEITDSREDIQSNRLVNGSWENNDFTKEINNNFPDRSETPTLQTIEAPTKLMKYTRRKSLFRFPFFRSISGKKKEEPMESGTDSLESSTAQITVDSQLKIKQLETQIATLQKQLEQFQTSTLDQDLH

T2: Atg14, fission yeast (S. pombe) (UniProt O42862)
T2 sequence: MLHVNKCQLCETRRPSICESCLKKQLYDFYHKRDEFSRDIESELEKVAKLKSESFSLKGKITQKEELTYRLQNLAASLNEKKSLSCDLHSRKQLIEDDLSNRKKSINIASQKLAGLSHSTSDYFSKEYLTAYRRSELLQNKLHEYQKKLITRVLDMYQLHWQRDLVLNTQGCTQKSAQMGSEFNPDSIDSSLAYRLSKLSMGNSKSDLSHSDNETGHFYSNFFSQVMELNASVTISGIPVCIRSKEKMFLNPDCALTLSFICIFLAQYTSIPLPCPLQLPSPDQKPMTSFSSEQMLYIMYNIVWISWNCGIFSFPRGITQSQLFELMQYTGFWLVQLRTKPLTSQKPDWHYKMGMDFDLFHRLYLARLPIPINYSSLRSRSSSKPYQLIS

T3: Atg6, fission yeast (S. pombe) (UniProt P87117)
T3 sequence: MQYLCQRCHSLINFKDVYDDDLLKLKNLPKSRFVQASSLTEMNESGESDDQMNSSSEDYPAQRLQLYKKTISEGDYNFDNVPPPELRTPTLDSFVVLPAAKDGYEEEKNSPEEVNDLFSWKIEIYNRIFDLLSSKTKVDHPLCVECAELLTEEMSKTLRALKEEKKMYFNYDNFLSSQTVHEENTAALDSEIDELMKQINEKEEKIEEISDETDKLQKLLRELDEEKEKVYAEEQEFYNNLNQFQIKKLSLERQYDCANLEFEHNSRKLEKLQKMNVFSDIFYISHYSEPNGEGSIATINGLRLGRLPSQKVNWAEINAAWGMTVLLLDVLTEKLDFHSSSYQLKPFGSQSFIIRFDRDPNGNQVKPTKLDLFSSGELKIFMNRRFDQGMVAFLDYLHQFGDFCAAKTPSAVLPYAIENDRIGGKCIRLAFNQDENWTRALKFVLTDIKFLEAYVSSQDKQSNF


Assays:
Assay in all cases: affinity purification with mass spectrometry; bait purified from S. pombe cells (approximately 1000–2000 OD600 units) harvested after 2 h of starvation; performed as described previously [43]
[1] = target: T1, Atg38 (SPBC660.08), fission yeast (S. pombe)
[2] = target: T2, Atg14, fission yeast (S. pombe)
[3] = target: T3, Atg6, fission yeast (S. pombe)

| Molecule | binding [1] | binding [2] | binding [3] |
| --- | --- | --- | --- |
| Vps15, fission yeast (from UniProt O42900 1-1706) | binds |  |  |
| Atg6, fission yeast (protein, UniProt P87117 1-464) MQYLCQRCHSLINFKDVYDDDLLKLKNLPKSRFVQASSLTEMNESGESDDQMNSSSEDYPAQRLQLYKKTISEGDYNFDNVPPPELRTPTLDSFVVLPAAKDGYEEEKNSPEEVNDLFSWKIEIYNRIFDLLSSKTKVDHPLCVECAELLTEEMSKTLRALKEEKKMYFNYDNFLSSQTVHEENTAALDSEIDELMKQINEKEEKIEEISDETDKLQKLLRELDEEKEKVYAEEQEFYNNLNQFQIKKLSLERQYDCANLEFEHNSRKLEKLQKMNVFSDIFYISHYSEPNGEGSIATINGLRLGRLPSQKVNWAEINAAWGMTVLLLDVLTEKLDFHSSSYQLKPFGSQSFIIRFDRDPNGNQVKPTKLDLFSSGELKIFMNRRFDQGMVAFLDYLHQFGDFCAAKTPSAVLPYAIENDRIGGKCIRLAFNQDENWTRALKFVLTDIKFLEAYVSSQDKQSNF | binds |  |  |
| Atg38 (SPBC660.08), fission yeast (protein, UniProt O94427 1-424) MVRYSLRKAHEYARDGENQEVLGEISQAIMYYGLAKSQFEKICQNTAQPLIKRCANNQIEELMVRIRELRESLPNKQTPISMSMSTRLSPMYTSSLTPRFTSNSMVLPGDHNTTVRLKPSFREALMEDSEDDLYQMYSKFEMQVKKLSTNYGLAVAFSIVPMDDDQPSPSIFSSDESFLIVEGDDFSLGNSVEEDANATSKEDPAYQNTNEQIQPLSNFDISQQEYLNNTRIPYENEDLHLQHITQGTTDDNNVSKFLIPSYNDAKELSEEEMGRSHKREESFKRAFGHASSSESSIGEITDSREDIQSNRLVNGSWENNDFTKEINNNFPDRSETPTLQTIEAPTKLMKYTRRKSLFRFPFFRSISGKKKEEPMESGTDSLESSTAQITVDSQLKIKQLETQIATLQKQLEQFQTSTLDQDLH |  | binds | binds |

Next, values leading:

| binding [1] | binding [2] | binding [3] | Molecule |
| --- | --- | --- | --- |
| binds |  |  | Vps34, fission yeast (protein, UniProt P50520 1-801) MDRLVFSYCPSSKVTARFLVKFCFIEYQDSQEPCICTIQLFSGNESGSLMQKCFVSKIPNKSLLPTELSKISTHEWLDFGVTVSELSLNAKFVVSAWKPSFNDEEVYEFVGCTTYRLFDENNLLRQGLQKIPLQTSKEIKKYSPTSLELEQVKEINRLDGLLLKLQLGDVPSVNWLDDISFGKIKDFRSKHMSLVTIPILYLDFLQFSFPVVFQRSYYPKSENRVYYSSFDLELNLDSPAELKHRRLVRSQRNGPLDKDLKPNSKIRKELESILSYPPSEELSLEEKDLIWKFRFYLTRNKKAMTKFLKSVVWTDSSEVNQALSLLDSWTEIDIDDALELLSPSFVHPKVRAYAVSRLETASNEELLLYLLQLVQALRYDNPISSDERFQPSPLALFLVNRAISSPSIGNDLYWYLVVEIEDEPVSKLFSSVMFLFQKELSKSVEGRLIRETLSAQAKFVEKLLRISKSVQSFRGTRLKKIEYLKVLLEDHKYHLLDFHALPLPLDPSVNIVGIIPDACTVFKSTMQPLRLLFKCQDGSKYPIIFKNGDDLRQDQLVIQILTLMDKLLKKEKLDLHLKPYRILATGPTHGAVQFVPSKTLATILAEYHGSVLAYLRENNPDDGLNSANYGIDPVAMDNYVRSCAGYCVITYLLGVGDRHLDNLLITKDGHFFHADFGYILGRDPKLFSPAMKLSKEMVEGMGGYNSPFYQQFKSYCYTTFTALRKSSNLILNLFSLMVDANIPDIKFDKEKVVYKVKERFCLQMSESDAIKYFEQLINDSVSALFPQIIDRMHNLAQYMRS |
| no binding |  |  | Vps38, fission yeast (protein, UniProt O60149 1-474) MSLELPGNYRLSRLKSIQIRNVQEIQNHSKFAINTTENLWKRDVQLKRAISEGTIRIFISLHVQSKKLPVYITETSGNANHIFYVDEKVTEKLQKYRHEEYFIVRTWCSSSSHAFKLHKEWKILRYDSNFRYIGNDPVFAVCHIRNGLLCEFNDGVYIYTTSQSSDIMRQTSFPKSASTYSIDRRKDGYTIQKITRILKLAECIDEMHIAKHEIRAHFQEEEFQQIRLMHKRMLLRDEKIDELAKLEHLWQKQINSITQMRTKFDKTKSWLSSKRNTLNKSKESLQKDEAEYVELANSLKTKVETNIEIRILMAHAIRMHVSHLSKIYPIQPSPGNHDEFTIRNLRLSFEPDKINNVEMAASIGFLAHLLQTLSKYLEKELAYPILCASSRSSILDTLTPDIPTRIFPLYPATRPIELFEHAIYLLNQDVNDFLETFGLPIDQSMDILRNFKKLLQFILSGQHLSFVQVTSTAP |

Results are given in words; binding and its absence hold for the method and conditions named. Binding seen in cells or lysates may run through a third protein. These calls come from enrichment with a bait or labelling near it, and not all partners need be listed. For part of these data: A no says only that the protein was not detected with the bait.
